Results as given in publication PMC6286129, “CryoEM structures of open dimers of gyrase A in complex with DNA illuminate mechanism of strand passage” (eLife, 2018).
These are yes or no findings as the source states them, for the method shown. Some results given as binding are weak or reduced against the parent protein; the word gives no strength.

Amino acid sequences for entries named in this document (tags omitted).
UniProt P0A4L9: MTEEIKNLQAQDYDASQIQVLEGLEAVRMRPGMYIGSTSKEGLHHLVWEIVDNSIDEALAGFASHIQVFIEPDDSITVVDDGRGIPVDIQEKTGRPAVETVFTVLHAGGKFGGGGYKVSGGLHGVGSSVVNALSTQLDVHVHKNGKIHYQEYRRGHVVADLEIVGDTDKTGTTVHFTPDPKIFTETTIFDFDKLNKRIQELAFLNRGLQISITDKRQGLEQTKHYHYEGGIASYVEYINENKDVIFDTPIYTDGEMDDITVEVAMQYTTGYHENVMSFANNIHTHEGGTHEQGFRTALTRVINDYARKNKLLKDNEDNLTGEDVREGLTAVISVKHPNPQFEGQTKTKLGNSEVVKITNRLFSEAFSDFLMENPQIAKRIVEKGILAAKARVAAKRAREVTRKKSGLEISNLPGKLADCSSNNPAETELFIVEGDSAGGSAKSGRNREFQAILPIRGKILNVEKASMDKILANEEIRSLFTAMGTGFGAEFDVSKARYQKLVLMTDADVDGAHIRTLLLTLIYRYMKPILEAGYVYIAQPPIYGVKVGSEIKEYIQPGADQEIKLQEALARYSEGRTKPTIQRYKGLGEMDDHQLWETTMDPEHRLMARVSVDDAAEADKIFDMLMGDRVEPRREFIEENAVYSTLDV

T1: Streptococcus pneumoniae gyrase A subunit with truncated C-terminal domain (GyrA-ΔCTD, residues 1–487) (Streptococcus pneumoniae) (UniProt P72524)
T1 sequence: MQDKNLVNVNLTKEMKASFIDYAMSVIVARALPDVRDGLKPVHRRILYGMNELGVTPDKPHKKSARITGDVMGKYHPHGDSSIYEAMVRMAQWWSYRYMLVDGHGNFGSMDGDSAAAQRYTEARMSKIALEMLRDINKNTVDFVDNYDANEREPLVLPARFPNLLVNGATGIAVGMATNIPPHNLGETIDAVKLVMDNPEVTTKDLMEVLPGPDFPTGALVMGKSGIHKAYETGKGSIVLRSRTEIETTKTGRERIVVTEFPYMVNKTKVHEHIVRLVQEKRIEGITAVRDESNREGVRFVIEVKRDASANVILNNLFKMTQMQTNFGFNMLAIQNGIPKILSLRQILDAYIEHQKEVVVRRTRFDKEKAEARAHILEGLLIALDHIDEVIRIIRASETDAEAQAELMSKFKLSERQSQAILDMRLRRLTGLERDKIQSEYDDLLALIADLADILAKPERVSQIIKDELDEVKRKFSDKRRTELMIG


How the values were obtained:
[1] = target: T1, Streptococcus pneumoniae gyrase A subunit with truncated C-terminal domain (GyrA-ΔCTD, residues 1–487) (Streptococcus pneumoniae); assay: negative stain EM; Tetrahedral complex formed from GyrA-ΔCTD, GyrB, 44 bp DNA, ciprofloxacin and novobiocin, purified by GraFix; 3D reconstruction with tetrahedral symmetry; both purified
[2] = target: T1, Streptococcus pneumoniae gyrase A subunit with truncated C-terminal domain (GyrA-ΔCTD, residues 1–487) (Streptococcus pneumoniae); assay: negative stain EM; Dihedral complex formed from GyrA-ΔCTD and 44 bp DNA, with or without ciprofloxacin, GraFix gradient with or without glutaraldehyde; 2D classification and 3D reconstruction; both purified

binding [1] | binding [2] | Molecule
no binding |  | Streptococcus pneumoniae gyrase B subunit (from UniProt P0A4L9 1-648)
binds | binds | Streptococcus pneumoniae gyrase A subunit with truncated C-terminal domain (GyrA-ΔCTD, residues 1–487) (domain or fragment, UniProt P72524 1-487, looked up, DNA gyrase subunit A, Streptococcus pneumoniae, gene cloned from the ATCC genome 700669DQ; residues 1-487 (C-terminal domain removed); The vector pMCSG7 adds 24 amino acids at the N-terminus, with a six amino acid His-tag and a TEV cleavage site; It forms open dimers that assemble around a 44 bp DNA into oligomers of four dimers (Dihedral complex) or six dimers (Tetrahedral complex); also called …) MQDKNLVNVNLTKEMKASFIDYAMSVIVARALPDVRDGLKPVHRRILYGMNELGVTPDKPHKKSARITGDVMGKYHPHGDSSIYEAMVRMAQWWSYRYMLVDGHGNFGSMDGDSAAAQRYTEARMSKIALEMLRDINKNTVDFVDNYDANEREPLVLPARFPNLLVNGATGIAVGMATNIPPHNLGETIDAVKLVMDNPEVTTKDLMEVLPGPDFPTGALVMGKSGIHKAYETGKGSIVLRSRTEIETTKTGRERIVVTEFPYMVNKTKVHEHIVRLVQEKRIEGITAVRDESNREGVRFVIEVKRDASANVILNNLFKMTQMQTNFGFNMLAIQNGIPKILSLRQILDAYIEHQKEVVVRRTRFDKEKAEARAHILEGLLIALDHIDEVIRIIRASETDAEAQAELMSKFKLSERQSQAILDMRLRRLTGLERDKIQSEYDDLLALIADLADILAKPERVSQIIKDELDEVKRKFSDKRRTELMIG
